{
  "sequences": {"note": "Sequences of proteins named here, by UniProt entry; tags and fusion partners are left off.", "UniProt O75376": "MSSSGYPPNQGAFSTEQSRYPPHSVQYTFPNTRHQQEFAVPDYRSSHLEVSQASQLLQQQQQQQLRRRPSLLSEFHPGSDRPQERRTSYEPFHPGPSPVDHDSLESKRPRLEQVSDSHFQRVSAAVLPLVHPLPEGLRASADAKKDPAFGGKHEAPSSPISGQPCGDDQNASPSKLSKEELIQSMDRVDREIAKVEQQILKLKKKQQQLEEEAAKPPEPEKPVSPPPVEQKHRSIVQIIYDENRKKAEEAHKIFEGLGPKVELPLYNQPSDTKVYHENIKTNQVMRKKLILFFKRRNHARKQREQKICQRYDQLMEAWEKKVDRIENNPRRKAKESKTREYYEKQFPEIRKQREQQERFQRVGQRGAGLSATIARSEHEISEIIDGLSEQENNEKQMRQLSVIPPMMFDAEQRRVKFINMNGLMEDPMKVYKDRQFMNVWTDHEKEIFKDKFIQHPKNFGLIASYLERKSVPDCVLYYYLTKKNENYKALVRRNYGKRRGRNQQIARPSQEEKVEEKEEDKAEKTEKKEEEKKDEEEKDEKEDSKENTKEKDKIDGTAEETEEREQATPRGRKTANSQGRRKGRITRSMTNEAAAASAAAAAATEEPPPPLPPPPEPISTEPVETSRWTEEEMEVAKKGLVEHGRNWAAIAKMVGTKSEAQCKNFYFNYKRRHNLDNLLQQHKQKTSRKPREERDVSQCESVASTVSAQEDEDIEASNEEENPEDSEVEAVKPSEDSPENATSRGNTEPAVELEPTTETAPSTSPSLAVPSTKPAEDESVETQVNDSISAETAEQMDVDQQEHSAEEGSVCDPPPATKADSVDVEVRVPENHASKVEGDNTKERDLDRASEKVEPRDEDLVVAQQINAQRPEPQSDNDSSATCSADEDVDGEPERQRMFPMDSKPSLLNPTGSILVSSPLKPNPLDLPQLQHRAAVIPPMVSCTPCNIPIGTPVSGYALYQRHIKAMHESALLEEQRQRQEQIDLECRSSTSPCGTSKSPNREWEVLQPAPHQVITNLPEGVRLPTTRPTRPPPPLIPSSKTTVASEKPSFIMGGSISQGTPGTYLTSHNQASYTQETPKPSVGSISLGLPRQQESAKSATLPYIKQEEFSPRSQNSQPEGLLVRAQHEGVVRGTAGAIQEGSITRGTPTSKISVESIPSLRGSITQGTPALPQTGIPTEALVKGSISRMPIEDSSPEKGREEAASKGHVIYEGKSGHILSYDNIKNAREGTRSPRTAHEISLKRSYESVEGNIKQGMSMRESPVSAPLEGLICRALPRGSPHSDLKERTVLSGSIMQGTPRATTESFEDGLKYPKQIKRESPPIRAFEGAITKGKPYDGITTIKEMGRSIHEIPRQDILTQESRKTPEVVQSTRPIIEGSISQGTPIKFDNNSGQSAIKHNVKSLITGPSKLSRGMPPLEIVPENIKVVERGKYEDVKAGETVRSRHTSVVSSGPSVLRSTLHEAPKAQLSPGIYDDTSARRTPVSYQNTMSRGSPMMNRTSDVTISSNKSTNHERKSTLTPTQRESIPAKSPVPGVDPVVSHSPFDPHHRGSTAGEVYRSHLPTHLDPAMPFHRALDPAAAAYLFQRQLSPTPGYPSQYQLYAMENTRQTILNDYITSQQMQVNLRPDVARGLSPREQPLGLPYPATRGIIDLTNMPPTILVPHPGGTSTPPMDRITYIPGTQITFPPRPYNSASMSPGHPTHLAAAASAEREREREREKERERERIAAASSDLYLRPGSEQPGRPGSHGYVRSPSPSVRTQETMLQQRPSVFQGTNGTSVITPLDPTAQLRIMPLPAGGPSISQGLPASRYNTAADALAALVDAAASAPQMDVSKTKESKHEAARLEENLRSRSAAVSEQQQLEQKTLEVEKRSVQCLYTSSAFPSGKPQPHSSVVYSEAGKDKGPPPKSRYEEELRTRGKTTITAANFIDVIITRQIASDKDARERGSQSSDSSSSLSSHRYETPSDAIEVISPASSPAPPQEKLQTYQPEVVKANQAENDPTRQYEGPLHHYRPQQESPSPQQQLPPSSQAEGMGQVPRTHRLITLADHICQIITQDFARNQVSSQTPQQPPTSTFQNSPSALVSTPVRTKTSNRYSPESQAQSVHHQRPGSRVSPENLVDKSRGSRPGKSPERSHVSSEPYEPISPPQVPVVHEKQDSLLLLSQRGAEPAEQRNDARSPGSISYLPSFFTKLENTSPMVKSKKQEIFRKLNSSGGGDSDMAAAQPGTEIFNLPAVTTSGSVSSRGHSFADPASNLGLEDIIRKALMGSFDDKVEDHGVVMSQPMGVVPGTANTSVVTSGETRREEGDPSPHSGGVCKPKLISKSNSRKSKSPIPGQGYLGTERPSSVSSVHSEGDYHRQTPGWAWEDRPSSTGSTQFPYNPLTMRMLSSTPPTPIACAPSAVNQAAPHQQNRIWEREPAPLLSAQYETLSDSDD", "UniProt Q13227": "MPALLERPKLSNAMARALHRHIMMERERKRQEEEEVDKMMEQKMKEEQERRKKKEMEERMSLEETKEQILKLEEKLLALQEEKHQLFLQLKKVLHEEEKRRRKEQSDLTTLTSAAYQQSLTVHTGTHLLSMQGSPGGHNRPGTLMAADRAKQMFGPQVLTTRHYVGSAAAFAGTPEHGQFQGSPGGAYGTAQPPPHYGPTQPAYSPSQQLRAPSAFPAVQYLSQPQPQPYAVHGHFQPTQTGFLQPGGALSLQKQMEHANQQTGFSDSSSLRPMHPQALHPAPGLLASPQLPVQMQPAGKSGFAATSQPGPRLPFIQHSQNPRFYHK"},
  "source": "paper PMC6459876",
  "key": {"[1]": {"molecular_target": "Flag-NCOR (nuclear receptor corepressor) (UniProt O75376)", "assay": "co-IP; HEK293 co-transfected with HA-PPARα and Flag-NCOR, without or with WT or truncated HA-GPS2; lysed 48 h after transfection; lysate incubated with anti-Flag on protein A magnetic beads for 3 h at 4 °C; five washes with lysis buffer; blotted with anti-Flag or anti-HA"}, "[2]": {"molecular_target": "T1, Flag-tagged PPARα (peroxisome proliferator-activated receptor α, NR1C1) (UniProt Q07869)", "T1 sequence": "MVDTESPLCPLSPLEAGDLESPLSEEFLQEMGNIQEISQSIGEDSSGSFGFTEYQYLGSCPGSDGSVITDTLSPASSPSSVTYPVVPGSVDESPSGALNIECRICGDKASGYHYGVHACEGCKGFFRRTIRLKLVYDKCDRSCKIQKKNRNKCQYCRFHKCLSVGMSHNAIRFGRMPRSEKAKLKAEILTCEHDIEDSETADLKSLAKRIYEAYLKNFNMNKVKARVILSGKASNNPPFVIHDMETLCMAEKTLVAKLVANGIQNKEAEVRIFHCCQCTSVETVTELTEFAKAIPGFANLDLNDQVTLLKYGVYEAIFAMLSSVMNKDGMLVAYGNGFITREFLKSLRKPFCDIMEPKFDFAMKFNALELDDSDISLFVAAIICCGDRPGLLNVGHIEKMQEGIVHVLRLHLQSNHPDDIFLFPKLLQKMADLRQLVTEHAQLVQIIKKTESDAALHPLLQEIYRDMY", "assay": "co-IP; HEK293 co-transfected with WT or truncated HA-GPS2 and Flag-PPARα; lysed 48 h after transfection; lysate incubated with anti-Flag on protein A magnetic beads for 3 h at 4 °C; five washes with lysis buffer; blotted with anti-Flag or anti-HA"}, "[3]": {"molecular_target": "Flag-NCOR (nuclear receptor corepressor) (UniProt O75376)", "assay": "co-IP; HEK293 co-transfected with HA-PPARα and Flag-NCOR, without or with WT or truncated HA-GPS2; lysed 48 h after transfection; lysate incubated with anti-Flag on protein A magnetic beads for 3 h at 4 °C; five washes with lysis buffer; blotted with anti-Flag or anti-HA", "remark": "listed apart in the source"}},
  "note": "Like-named read-outs stand apart in the source and are kept apart here. Results are given in words; binding and its absence hold for the method and conditions named. Binding seen in cells or lysates may run through a third protein. Some entries that bind do so weakly or less than the wild type. For part of these data: Where a sequence is shown, tags or fusion partners need not be part of it.",
  "data": [
    {"molecule": "HA-GPS2 (G protein pathway suppressor 2), WT, full-length (from UniProt Q13227 1-327)", "values": [
      {"measurement": "binding", "setting": "[1]", "result": "binds"},
      {"measurement": "binding", "setting": "[2]", "result": "binds"}
    ]},
    {"molecule": "HA-PPARα (peroxisome proliferator-activated receptor α, NR1C1) (protein, UniProt Q07869 1-468) MVDTESPLCPLSPLEAGDLESPLSEEFLQEMGNIQEISQSIGEDSSGSFGFTEYQYLGSCPGSDGSVITDTLSPASSPSSVTYPVVPGSVDESPSGALNIECRICGDKASGYHYGVHACEGCKGFFRRTIRLKLVYDKCDRSCKIQKKNRNKCQYCRFHKCLSVGMSHNAIRFGRMPRSEKAKLKAEILTCEHDIEDSETADLKSLAKRIYEAYLKNFNMNKVKARVILSGKASNNPPFVIHDMETLCMAEKTLVAKLVANGIQNKEAEVRIFHCCQCTSVETVTELTEFAKAIPGFANLDLNDQVTLLKYGVYEAIFAMLSSVMNKDGMLVAYGNGFITREFLKSLRKPFCDIMEPKFDFAMKFNALELDDSDISLFVAAIICCGDRPGLLNVGHIEKMQEGIVHVLRLHLQSNHPDDIFLFPKLLQKMADLRQLVTEHAQLVQIIKKTESDAALHPLLQEIYRDMY", "values": [
      {"measurement": "binding", "setting": "[3]", "result": "binds"}
    ]}
  ]
}
